Measurements: the supplement of paper PMC8166895
Structures can show the parent of a compound that is named as a salt. The list shows a part of the results. Most entries show no effect beyond the scatter of the controls.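 A single-replicate pilot screen of approved drugs and clinical or known-target compounds measured melting temperature via differential scanning fluorimetry. Top stabilizing hits raised the melting point by 2 °C or more; negative shifts indicate destabilization.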

What follows are compounds tested on SARS-CoV-2 main protease (Mpro, nsp5) (assay: thermal shift ΔTm of Mpro relative to plate average Tm; higher = stronger thermal stabilization of Mpro (binding)). Conditions: 10 µM; protein concentration 1 µM.

SMILES | thermal shift ΔTm of Mpro [°C]
OC1CN(CCCOCCc2ccc3sccc3c2)C1 [Edonerpic maleate] | -0.00371
Cc1ccc(-c2ncc(Cl)cc2-c2ccc(S(C)(=O)=O)cc2)cn1 [Etoricoxib] | 0.355
NCC(=O)O [Magnesium glycinate] | 0.314
CC1CCc2c(N3CCC(O)CC3)c(F)cc3c(=O)c(C(=O)O)cn1c23 (stereo not given) [Nadifloxacin] | -0.0438
OC[C@H]1O[C@@H](c2ccc(F)c(Cc3cc4ccccc4s3)c2)[C@H](O)[C@@H](O)[C@@H]1O [Ipragliflozin] | 0.0508
Clc1ccc(COC(Cn2ccnc2)c2ccc(Cl)cc2Cl)c(Cl)c1 (stereo not given) [Miconazole Nitrate] | -0.00772
Clc1ccc(COC(Cn2ccnc2)c2ccc(Cl)cc2Cl)c(Cl)c1 (stereo not given) [Miconazole] | -0.336
Cc1cc(=O)n(-c2ccccc2)n1C [Antipyrine] | 0.182
O=C(NCCN1CCC(n2c(=O)[nH]c3ccccc32)CC1)c1cc2cc(F)ccc2[nH]1 | -0.156
CS(=O)(=O)n1cc2c(n1)CN([C@H]1CO[C@H](c3cc(F)ccc3F)[C@@H](N)C1)C2 [Omarigliptin] | 0.0526
CCCN(CCc1cccs1)[C@H]1CCc2c(O)cccc2C1 [Rotigotine] | -0.12
NC12CC3CC(CC(C3)C1)C2 [Amantadine HCl] | -0.0364
CCOc1ccc2nc(SCCN3CCOCC3)[nH]c2c1 [Fabomotizole] | 0.137
CCOc1ccc2nc(SCCN3CCOCC3)[nH]c2c1 [Afobazole hydrochloride] | -0.0484
Cn1ncc(Cl)c1-c1cc(C(=O)N[C@H](CN)Cc2cccc(F)c2)sc1Cl | -0.289
CO[C@H]1O[C@@H]2O[C@@]3(C)CC[C@H]4[C@H](C)CC[C@@H]([C@H]1C)[C@@]24OO3 [Artemether] | -0.0197
CC(C)(C)C[C@@H]1N[C@@H](C(=O)N[C@H]2CC[C@H](O)CC2)[C@H](c2cccc(Cl)c2F)[C@]12C(=O)Nc1cc(Cl)ccc12 | -0.67
O=c1c2ccccc2oc2ccccc12 [Xanthone] | -0.0012
O=c1cc(-c2ccc(O)c(O)c2)oc2cc(O)cc(O)c12 [Luteolin] | -0.833
CCOc1cc(C(=O)N2CCC(N3CCN(C)CC3)CC2)ccc1Nc1ncc2c(n1)N(C1CCCC1)c1ccccc1C(=O)N2C | -0.45
O=C(NOCCO)c1ccc2cncn2c1Nc1ccc(I)cc1F | 0.983
CC(=O)Nc1ccc(NC(=S)NC(=O)c2ccc(C(C)(C)C)cc2)cc1 [Tenovin-1] | -0.163
CC(C)(C(=O)c1cccnc1)c1cccnc1 [Metyrapone] | 0.318
O=C(O)[C@H]1C2CCC(CC2)[C@@H]1Nc1nc(-c2c[nH]c3ncc(F)cc23)ncc1F [Pimodivir] | -0.0579
Nc1ncn([C@H]2C[C@H](O)[C@@H](CO)O2)c(=O)n1 [Decitabine] | 0.137

SMILES | thermal shift ΔTm of Mpro [°C]
O=C(Cc1ccc(-c2ccc(OCCN3CCOCC3)cc2)cn1)NCc1ccccc1 | -0.176
CC(C)[C@@H]1[C@H]2OC(=O)[C@@H]1[C@@H]1CC[C@@H]3CN(C)[C@H]2[C@@]31C [Dendrobine] | 0.0347
CC(C)(S)C(N)C(=O)O (racemic) [DL-Penicillamine] | 0.187
CC(=O)N(O)CCCCCNC(=O)CCC(=O)N(O)CCCCCNC(=O)CCC(=O)N(O)CCCCCN [Deferoxamine Mesylate] | 0.0155
O=C1Cc2cc(CCN3CCN(c4nsc5ccccc45)CC3)c(Cl)cc2N1 [Ziprasidone HCl] | 0.217
O=C1Cc2cc(CCN3CCN(c4nsc5ccccc45)CC3)c(Cl)cc2N1 [Ziprasidone] | -0.0959
CC(C)/N=c1\cc2n(-c3ccc(Cl)cc3)c3ccccc3nc-2cc1Nc1ccc(Cl)cc1 [Clofazimine] | 0.0226
O=C(Nc1ccc(Cl)cc1)C1CCCN(C(=O)c2cccc(-c3ccco3)c2)C1 (stereo not given) | 0.172
CCN[C@H]1C[C@H](C)S(=O)(=O)c2sc(S(N)(=O)=O)cc21 [Dorzolamide hydrochloride] | 0.386
CN1CCN(c2ccc(-c3ccncc3-c3cc(F)c(O)c(F)c3)cc2)CC1 | 0.141
O=C(O)CCCCN(CCc1ccccc1OCc1ccc(CCc2ccccc2)cc1)Cc1ccc(C(=O)O)cc1 [Cinaciguat] | -0.0236
C[C@@H]1[C@H](O)[C@@H](C)/C=C/C=C/C=C/C=C/C=C/C=C/C=C/[C@H](O[C@@H]2O[C@H](C)[C@@H](O)[C@H](N)[C@@H]2O)C[C@@H]2O[C@](O)(C[C@@H](O)C[C@@H](O)[C@H](O)CC[C@@H](O)C[C@@H](O)CC(=O)O[C@H]1C)C[C@H](O)[C@H]2C(=O)O [Amphotericin B] | 0.0425
O=c1cc(N2CCOCC2)oc2c1ccc1ccccc12 | 0.14
CCC(Cc1c(I)cc(I)c(N)c1I)C(=O)O (stereo not given) [Iopanoic acid] | 0.321
C/C(=N\NC(=O)C(NC(=O)c1ccccc1)c1n[nH]c(=O)c2ccccc12)c1cccc(Br)c1 (stereo not given) | 0.0135
Cc1cc(Nc2ccc(NC(=O)c3ccc(Nc4ccnc5ccccc45)cc3)cc2)nc(N)n1 | 0.823
CNC(CC(=O)O)C(=O)O [NMDA (N-Methyl-D-aspartic acid)] | -0.0829
C[C@H](NC(=O)Cc1cc(F)cc(F)c1)C(=O)N[C@H](C(=O)OC(C)(C)C)c1ccccc1 | -0.116
CC(C)N(CCCNC(=O)Nc1ccc(C(C)(C)C)cc1)C[C@H]1O[C@@H](n2ccc3c(N)ncnc32)[C@H](O)[C@@H]1O | -0.194
N#CC(C#N)=NNc1ccc(OC(F)(F)F)cc1 | 0.118
C[C@]12CC[C@@H]3c4ccc(O)cc4CC[C@H]3[C@@H]1CC[C@@H]2OC(=O)CCC1CCCC1 [Estradiol Cypionate] | 0.777
C[C@]12CCC3=C4CCC(=O)C=C4CC[C@H]3[C@@H]1CCC2=O [Methyldienedione] | 0.391
CCS(=O)(=O)Nc1ccc2[nH]c(O)c(C(=Nc3ccc(CN4CCCCC4)cc3)c3ccccc3)c2c1 [Hesperadin] | -0.244
C[C@H](NC(=O)[C@@H](O)c1cc(F)cc(F)c1)C(=O)N[C@@H]1C(=O)N(C)c2ccccc2-c2ccccc21 | -0.029
CC(C)Oc1ccc(Cc2ccc(NC3=NCCN3)cc2)cc1 | -0.232

Another view of some results above:
SMILES,thermal shift ΔTm of Mpro [°C]
CC(C)N(CCCNC(=O)Nc1ccc(C(C)(C)C)cc1)C[C@H]1O[C@@H](n2ccc3c(N)ncnc32)[C@H](O)[C@@H]1O,-0.194
N#CC(C#N)=NNc1ccc(OC(F)(F)F)cc1,0.118
C[C@]12CC[C@@H]3c4ccc(O)cc4CC[C@H]3[C@@H]1CC[C@@H]2OC(=O)CCC1CCCC1 [Estradiol Cypionate],0.777
